In PubChem BioAssay AID485314 (National Center for Advancing Translational Sciences (NCATS), 2010):
In all, about 340,000 compounds went through this assay and about 4,500 (1.3%) were called active. Inconclusive means that the source gave no clear call. Such entries were picked first, then a sample of the others. The call rests on the fitted dose curve; in most records, active means well fitted inhibition curve with a large enough effect; inconclusive means small, poorly fitted or top-dose-only effect, or another doubt; inactive means no such curve, though single readings can be large or run the other way. Potencies beside an inconclusive call are fits to weak or partial responses and may not hold up.

What follows are compounds tested against DNA polymerase beta (Homo sapiens) (UniProt P06746) (assay: qHTS Assay for Inhibitors of DNA Polymerase Beta). Conditions: Pol beta primer extension/strand displacement, fluorescence kinetic; activity change, negative = inhibition: at 114 µM (top of the series).
How it was run: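 Curves were derived by four-parameter Hill fits of normalized qHTS data. The kinetic fluorescent primer-extension read was taken at 0 and 10 min after 50 nM substrate, following a 15 min room-temperature preincubation of 10 nM enzyme with compounds.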
On the % scale 0 is the no-effect control and ±100 the full control effect; potency means the concentration at half of the fitted maximal effect.

Potency, active:
Cc1ccc2nc3sc(C(=O)Nc4c(C)[nH]c(=O)[nH]c4=O)c(N)c3cc2c1 50.1 µM, COc1ccc(/C=N/Nc2cc(C)nc3ccccc23)cc1 79.4 µM, CCOc1cc(/C=N/N=C2/NC(=O)C(CC(=O)O)S2)ccc1OCc1ccc(Cl)cc1Cl (stereo unspecified) 22.4 µM, COc1cc(/C=C2\SC(=S)N(Nc3ncc(C(F)(F)F)cc3Cl)C2=O)ccc1O 14.1 µM, COc1ccc2ccccc2c1C(=O)/C=C\c1ccoc1 44.7 µM, Cc1cc(/C=C2\SC(=S)NC2=O)c(C)n1C1CC1 25.1 µM, Cc1cc2oc(C(=O)NCCc3ccc(S(N)(=O)=O)cc3)c(C)c2cc1C 5.62 µM, COc1ccc(NC(=O)CSc2nc3n[nH]c(C)c3c(=N)n2-c2ccc(Cl)c(C)c2)cc1OC 3.55 µM

Potency, inconclusive:
CC(=O)C1C(=O)c2c(cccc2[N+](=O)[O-])C1=Nc1ccc(S(N)(=O)=O)cc1 (stereo unspecified) 8.91 µM [inhibitor, full curve], CCSc1nnc(SCC(=O)NNC(=O)c2ccccc2F)s1 79.4 µM [inhibitor, single point], COc1cc(/C=C/C(=O)NCc2cccnc2)cc(OC)c1OC 3.55 µM [inhibitor, single point], CCCCC(=O)N(c1ccc(OC)cc1)C1C=CS(=O)(=O)C1 (stereo unspecified) 89.1 µM [inhibitor, single point], Cc1cccc(NS(=O)(=O)c2ccc3oc(=O)c4ncn(C)c4c3c2)c1C 3.98 µM [inhibitor, single point], COCCN(C(=O)Cc1cccs1)C(C(=O)NC1CCCC1)c1cc(OC)c(OC)c(OC)c1 (stereo unspecified) 44.7 µM [inhibitor, single point], CCOc1ccc(N2C(=O)C3Sc4[nH]c(=O)sc4C(/C=C/c4ccccc4)C3C2=O)cc1 (stereo unspecified) 70.8 µM [inhibitor, single point], COc1ccc(Nc2nc(NCCCN3CCOCC3)nc(N)c2[N+](=O)[O-])cc1 100 µM [inhibitor, single point], CNCCCc1[nH]nc(N)c1C#N 4.47 µM [inhibitor, single point], CC(=O)Nc1cccc(NC(=O)COc2nncc3ccccc23)c1 100 µM [inhibitor, single point], O=C(Cn1nnc(-c2ccccc2NC(=O)c2ccco2)n1)Nc1ccccc1 25.1 µM [inhibitor, full curve, poor fit], CN(Cc1ccccc1)C(=O)CCNS(=O)(=O)c1ccc2c(c1)oc(=O)n2C 15.8 µM [inhibitor, full curve], O=C(Nc1ccn(Cc2c(F)c(F)cc(F)c2F)n1)c1cccc(Cn2cc([N+](=O)[O-])cn2)c1 100 µM [inhibitor, partial curve], O=C(Nc1ccc(S(=O)(=O)NCc2ccco2)cc1)c1ccc2ccccc2n1 20 µM [inhibitor, partial curve], CC1CCCN(C(=S)Nc2ccc(F)cc2)C1 (stereo unspecified) 89.1 µM [inhibitor, single point], O=C(O)CCSCC(=O)Nc1c(C(=O)C2CC2)oc2ccccc12 89.1 µM [inhibitor, single point], Cc1ccc(-c2ccc(/C=N/NC(=O)c3ccccc3O)o2)cc1 89.1 µM [inhibitor, single point], O=C(CCS(=O)(=O)c1ccc(Br)cc1)NCc1ccc(F)cc1 89.1 µM [inhibitor, single point], CCc1nn(CC(=O)Nc2c(C)cc(C)cc2C)c(=O)c2cc3sccc3n12 1.41 µM [inhibitor, full curve, poor fit], Cc1ccc(C(=O)Nc2ccc3c(c2)N(C)C(=O)c2ccccc2S3)cc1F 89.1 µM [inhibitor, single point], NC(=O)NC(=O)CC1S/C(=N/N=C/c2ccccc2)NC1=O (stereo unspecified) 0.112 µM [inhibitor, full curve, poor fit], CCCC(=O)Nc1nnc(CC(=O)OCC)s1 0.355 µM [inhibitor, full curve, poor fit], COc1ccc(/C=N/NC(=O)C2(O)c3ccccc3-c3ccccc32)cc1 39.8 µM [inhibitor, single point], CCCCN(CC)CCCNC(=O)c1cn(CC(C)C)c(=O)c2c1c1ccccc1n2C 89.1 µM [inhibitor, single point], CCOC(=O)C1=C(c2ccccc2)OC(N)=C(C#N)C1c1ccc(Cl)s1 (stereo unspecified) 0.224 µM [inhibitor, full curve, poor fit], COc1ccc(-c2cn3nc(N4CCCC(C(=O)Nc5ccc(Cl)cc5C)C4)sc3n2)cc1 (stereo unspecified) 89.1 µM [inhibitor, single point], CCC(Sc1nc2ccc(C)cc2[nH]1)C(=O)O (stereo unspecified) 28.2 µM [inhibitor, partial curve], COc1cc(C(C(=O)NC(C)(C)C)N(C(=O)CNC(=O)c2cccs2)c2cccnc2)cc(OC)c1OC (stereo unspecified) 100 µM [inhibitor, single point], O=C(NCc1cc(C(F)(F)F)cc(C(F)(F)F)c1)C1CC(c2c(Cl)cccc2Cl)=NO1 (stereo unspecified) 39.8 µM [inhibitor, single point], Cc1nc2cc(-c3sccc3-n3cccc3)nn2c(C)c1C 0.355 µM [inhibitor, full curve, poor fit], CCOc1ccc(N2C(=O)CC(NC3CCCCNC3=O)C2=O)cc1 (stereo unspecified) 89.1 µM [inhibitor, single point], COc1ccc(S(=O)(=O)NCCc2nnc3ccc(SCc4cccnc4)nn23)cc1 79.4 µM [inhibitor, single point], O=C1CS/C(=N\N=C\c2ccco2)N1c1ccccc1 50.1 µM [inhibitor, partial curve], O=C(Nc1ccc2c(c1)OCO2)Nc1ccc2c(c1)OCO2 79.4 µM [inhibitor, single point], O=C(N/N=C/c1ccc(OC(F)F)cc1)C1=COCCO1 100 µM [inhibitor, single point], Cc1cccc(CS(=O)(=O)CC2Nc3ccc(C(=O)NCc4ccccc4)cc3NC2=O)c1 (stereo unspecified) 20 µM [inhibitor, full curve], Cc1cccc(Nc2nc(Nc3cccc(C)c3)nc(N3CCOCC3)n2)c1 1.41 µM [inhibitor, single point], CC(=O)c1cc(OC(=O)c2ccncc2)ccc1OC(=O)c1ccncc1 5.01 µM [inhibitor, partial curve, poor fit], O=S(=O)(NCc1ccc(F)cc1)c1ccc2[nH]c3c(c2c1)CCCCC3 89.1 µM [inhibitor, single point], O=c1c2cc(Br)cc(Br)c2oc2nc3n(c(=O)c12)CCCS3 15.8 µM [inhibitor, partial curve]

Activity change, negative = inhibition, inactive:
NC(=O)c1ccc[n+](CC(=O)c2ccc(F)cc2)c1 -0.323%, NS(=O)(=O)c1ccc(N=Nc2ccc(O)c3ncccc23)cc1 -25%, Cc1ccc(C(=O)NCCNS(=O)(=O)c2ccccc2[N+](=O)[O-])cc1 7.13%, CCOC(=O)CSc1nc2c([nH]c3ccccc32)c(=O)n1-c1ccc(OCC)cc1 22.8%, CCc1ccc2[nH]c(=O)c(C3C(C#N)=C(N)Oc4c3ccc3cccnc43)cc2c1 (stereo unspecified) 18.5%, CC1Cc2ccccc2N1C(=O)CN1CCC(n2nnc3cc(C(F)(F)F)ccc32)CC1 (stereo unspecified) -0.955%, Cc1ccccc1C(=O)Nc1nc2c(s1)CC(C(C)(C)C)CC2 (stereo unspecified) -0.656%, O=C(CSc1nc2c([nH]c3ccccc32)c(=O)n1-c1ccc(F)cc1)N1CCCCCC1 29.1%, CCC(C)COC(=O)c1ccc(C(=O)O)cc1 (stereo unspecified) 13.1%, CC1Cc2cc(S(=O)(=O)NCc3ccc(F)cc3)ccc2N1C(=O)C1CCC1 (stereo unspecified) 10.5%, Cc1cc(NC(=O)CSc2ncnc3sccc23)no1 10.7%, Cc1ccc(N2C(=O)CSC2=S)cc1C 23%, COc1ccc(C(=O)N(C)c2ccccc2C(=O)NCCc2ccccc2)cc1 29.1%, CCN(C(=O)Cc1ccc(NC2=NC3CS(=O)(=O)CC3S2)cc1)c1ccccc1 (stereo unspecified) -1.58%, COc1ccc(C(c2c(C)n(C)n(-c3ccccc3)c2=O)c2c(C)n(C)n(-c3ccccc3)c2=O)cc1OC 15.2%, COc1ccc(NC(=O)Cn2cnc3c(nc4n3CCCCC4)c2=O)c(OC)c1 2.12%, COC(=O)c1c(N)sc2c1CC(C)(C)OC2 15%, CN(C)S(=O)(=O)c1ccc(NC(=O)C2CC(=O)N(Cc3ccccc3)C2)cc1 (stereo unspecified) 4.65%, COc1ccc(N2CCN(C(=O)Cn3cnc4sc(C)c(S(=O)(=O)N5CCC(C)CC5)c4c3=O)CC2)cc1 0.876%, CCOC(=O)C1=C(C)N(CCCCCC(=O)O)C(=O)NC1c1ccc(Cl)cc1 (stereo unspecified) 11.6%, Cc1ccc(S(=O)(=O)N(CC(=O)N/N=C/c2ccccc2C(=O)O)c2cc(Cl)cc(Cl)c2)cc1 1.27%, Cc1ccc(CNC(=O)c2cc(S(=O)(=O)N3CCCC(C)C3)cn2C)cc1 (stereo unspecified) -0.803%

Activity change, negative = inhibition, inconclusive:
CC(C)c1ccc(N2C(=O)/C(=C/N(C)C)SC2=S)cc1 -190% [inhibitor]
